# Experiments:
# Amino acid sequences for entries named in this document (tags omitted). A change or cut given only in a name is not applied to a line headed by its entry.
# UniProt O15355: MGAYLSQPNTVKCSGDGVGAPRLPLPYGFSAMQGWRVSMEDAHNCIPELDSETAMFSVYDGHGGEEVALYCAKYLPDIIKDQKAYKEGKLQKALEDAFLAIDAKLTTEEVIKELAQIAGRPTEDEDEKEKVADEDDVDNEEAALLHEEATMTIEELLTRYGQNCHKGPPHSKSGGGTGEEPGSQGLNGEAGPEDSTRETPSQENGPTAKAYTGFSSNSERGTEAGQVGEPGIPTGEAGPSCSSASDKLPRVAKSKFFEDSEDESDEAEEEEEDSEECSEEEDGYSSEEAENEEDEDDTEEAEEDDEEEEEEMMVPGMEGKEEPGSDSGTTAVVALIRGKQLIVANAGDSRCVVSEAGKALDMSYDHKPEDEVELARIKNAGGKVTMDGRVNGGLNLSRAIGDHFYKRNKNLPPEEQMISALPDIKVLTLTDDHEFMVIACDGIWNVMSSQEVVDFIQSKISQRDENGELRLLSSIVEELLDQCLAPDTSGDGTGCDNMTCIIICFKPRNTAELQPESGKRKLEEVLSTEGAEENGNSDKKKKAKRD
# Experiment in all cases: SEC-MS interaction analysis
# Assay type in all cases: binding
# FLJ45688 (SEQ ID NO:23) = molecular target: T1, FLJ45688 (SEQ ID NO:23) (Homo sapiens, UniProt O15355, DEL20-36/V37F)
# T1 construct: proteins expressed from human full-length cDNA clones; His tag (N); made in house; host or cells: Escherichia coli BL21star(DE3)pLysS (pDEST17)
# T1 sequence (O15355 with tags, fused parts or gaps DEL20-36/V37F): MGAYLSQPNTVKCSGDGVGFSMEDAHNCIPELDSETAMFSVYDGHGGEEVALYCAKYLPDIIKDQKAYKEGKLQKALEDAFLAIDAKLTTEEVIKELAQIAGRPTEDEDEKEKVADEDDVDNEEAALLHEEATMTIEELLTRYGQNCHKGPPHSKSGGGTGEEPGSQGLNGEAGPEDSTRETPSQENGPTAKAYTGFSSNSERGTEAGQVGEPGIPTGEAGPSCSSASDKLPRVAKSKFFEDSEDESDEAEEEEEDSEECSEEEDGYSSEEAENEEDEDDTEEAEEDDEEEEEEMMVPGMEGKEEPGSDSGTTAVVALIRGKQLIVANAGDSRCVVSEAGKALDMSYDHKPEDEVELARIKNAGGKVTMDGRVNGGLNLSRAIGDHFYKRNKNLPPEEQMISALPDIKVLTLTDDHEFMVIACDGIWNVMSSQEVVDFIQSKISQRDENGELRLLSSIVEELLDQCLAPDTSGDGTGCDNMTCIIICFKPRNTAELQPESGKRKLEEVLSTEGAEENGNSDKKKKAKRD
# [1] = molecular target: T2, protein of SEQ ID NO:61 (FLJ No. in Table 1-8) (Homo sapiens, UniProt A1Z1Q3)
# T2 construct: A human full-length cDNA clone was expressed as a protein with an N-terminal His tag; His tag (N); made in house; host or cells: Escherichia coli BL21star(DE3)pLysS
# T2 sequence (A1Z1Q3 236-425): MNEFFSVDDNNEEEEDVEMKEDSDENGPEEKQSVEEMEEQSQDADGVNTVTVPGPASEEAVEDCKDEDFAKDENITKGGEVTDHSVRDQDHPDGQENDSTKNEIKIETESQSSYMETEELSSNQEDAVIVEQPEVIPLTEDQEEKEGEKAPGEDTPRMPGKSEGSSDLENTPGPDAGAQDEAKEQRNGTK
# FLJ16517 (SEQ ID NO:54) = molecular target: T3, FLJ16517 (SEQ ID NO:54) (Homo sapiens, UniProt Q6ZN17)
# T3 construct: A human full-length cDNA clone was expressed as a protein with an N-terminal His tag; His tag (N); made in house; host or cells: Escherichia coli BL21star(DE3)pLysS
# T3 sequence (Q6ZN17 1-250): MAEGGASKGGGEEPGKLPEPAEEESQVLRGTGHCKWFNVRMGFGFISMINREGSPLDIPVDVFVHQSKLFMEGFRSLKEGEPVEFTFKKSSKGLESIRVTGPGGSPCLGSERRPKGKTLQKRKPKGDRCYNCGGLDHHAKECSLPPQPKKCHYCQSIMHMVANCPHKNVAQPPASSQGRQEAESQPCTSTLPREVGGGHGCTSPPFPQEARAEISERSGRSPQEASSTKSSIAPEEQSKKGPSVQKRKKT
smiles,measurement,setting,value
CC(C)(C)CC(C)(C)c1ccc(OCCOCC[N+](C)(C)Cc2ccccc2)cc1 [benzethonium],compound signal in measured mass range (SEC-MS),"FLJ45688 (SEQ ID NO:23); Minerals (+), protein 0 uM, compound 1 uM",−0.1
same,compound signal in measured mass range (SEC-MS),"FLJ45688 (SEQ ID NO:23); Minerals (+), protein 0 uM, compound 10 uM",−0.1
same,compound signal in measured mass range (SEC-MS),"FLJ45688 (SEQ ID NO:23); Minerals (+), protein 0 uM, compound 100 uM",0.8
same,compound signal in measured mass range (SEC-MS),"FLJ45688 (SEQ ID NO:23); Minerals (+), protein 0 uM, compound 250 uM",12.4
same,compound signal in measured mass range (SEC-MS),"FLJ45688 (SEQ ID NO:23); Minerals (+), protein 23.8 uM, compound 1 uM",0.1
same,compound signal in measured mass range (SEC-MS),"FLJ45688 (SEQ ID NO:23); Minerals (+), protein 23.8 uM, compound 10 uM",1.2
same,compound signal in measured mass range (SEC-MS),"FLJ45688 (SEQ ID NO:23); Minerals (+), protein 23.8 uM, compound 100 uM",22.1
same,compound signal in measured mass range (SEC-MS),"FLJ45688 (SEQ ID NO:23); Minerals (+), protein 23.8 uM, compound 250 uM",57.6
same,compound signal in measured mass range (SEC-MS),"FLJ45688 (SEQ ID NO:23); Minerals (−), protein 0 uM, compound 1 uM",0.0
same,compound signal in measured mass range (SEC-MS),"FLJ45688 (SEQ ID NO:23); Minerals (−), protein 0 uM, compound 10 uM",0.0
same,compound signal in measured mass range (SEC-MS),"FLJ45688 (SEQ ID NO:23); Minerals (−), protein 0 uM, compound 100 uM",0.0
same,compound signal in measured mass range (SEC-MS),"FLJ45688 (SEQ ID NO:23); Minerals (−), protein 0 uM, compound 250 uM",0.4
same,compound signal in measured mass range (SEC-MS),"FLJ45688 (SEQ ID NO:23); Minerals (−), protein 23.8 uM, compound 1 uM",0.0
same,compound signal in measured mass range (SEC-MS),"FLJ45688 (SEQ ID NO:23); Minerals (−), protein 23.8 uM, compound 10 uM",0.6
same,compound signal in measured mass range (SEC-MS),"FLJ45688 (SEQ ID NO:23); Minerals (−), protein 23.8 uM, compound 100 uM",19.4
same,compound signal in measured mass range (SEC-MS),"FLJ45688 (SEQ ID NO:23); Minerals (−), protein 23.8 uM, compound 250 uM",41.9
same,SEC-MS signal of compound in measured mass range,"[1]; protein 0 uM, compound 1 uM, Minerals (+)",0.0
same,SEC-MS signal of compound in measured mass range,"[1]; protein 0 uM, compound 1 uM, Minerals (−)",0.0
same,SEC-MS signal of compound in measured mass range,"[1]; protein 0 uM, compound 10 uM, Minerals (+)",0.0
same,SEC-MS signal of compound in measured mass range,"[1]; protein 0 uM, compound 10 uM, Minerals (−)",0.0
same,SEC-MS signal of compound in measured mass range,"[1]; protein 0 uM, compound 100 uM, Minerals (+)",0.1
same,SEC-MS signal of compound in measured mass range,"[1]; protein 0 uM, compound 100 uM, Minerals (−)",1.5
same,SEC-MS signal of compound in measured mass range,"[1]; protein 0 uM, compound 250 uM, Minerals (+)",1.2
same,SEC-MS signal of compound in measured mass range,"[1]; protein 0 uM, compound 250 uM, Minerals (−)",3.0
same,SEC-MS signal of compound in measured mass range,"[1]; protein 23.8 uM, compound 1 uM, Minerals (+)",0.0
same,SEC-MS signal of compound in measured mass range,"[1]; protein 23.8 uM, compound 1 uM, Minerals (−)",0.0
same,SEC-MS signal of compound in measured mass range,"[1]; protein 23.8 uM, compound 10 uM, Minerals (+)",0.0
same,SEC-MS signal of compound in measured mass range,"[1]; protein 23.8 uM, compound 10 uM, Minerals (−)",0.0
same,SEC-MS signal of compound in measured mass range,"[1]; protein 23.8 uM, compound 100 uM, Minerals (+)",1.2
same,SEC-MS signal of compound in measured mass range,"[1]; protein 23.8 uM, compound 100 uM, Minerals (−)",0.6
same,SEC-MS signal of compound in measured mass range,"[1]; protein 23.8 uM, compound 250 uM, Minerals (+)",2.7
same,SEC-MS signal of compound in measured mass range,"[1]; protein 23.8 uM, compound 250 uM, Minerals (−)",29.5
same,SEC-MS signal of compound in measured mass range,"[1]; protein 47.5 uM, compound 1 uM, Minerals (+)",0.0
same,SEC-MS signal of compound in measured mass range,"[1]; protein 47.5 uM, compound 1 uM, Minerals (−)",0.0
same,SEC-MS signal of compound in measured mass range,"[1]; protein 47.5 uM, compound 10 uM, Minerals (+)",0.0
same,SEC-MS signal of compound in measured mass range,"[1]; protein 47.5 uM, compound 10 uM, Minerals (−)",0.0
same,SEC-MS signal of compound in measured mass range,"[1]; protein 47.5 uM, compound 100 uM, Minerals (+)",0.7
same,SEC-MS signal of compound in measured mass range,"[1]; protein 47.5 uM, compound 100 uM, Minerals (−)",8.1
same,SEC-MS signal of compound in measured mass range,"[1]; protein 47.5 uM, compound 250 uM, Minerals (+)",5.3
same,SEC-MS signal of compound in measured mass range,"[1]; protein 47.5 uM, compound 250 uM, Minerals (−)",26.3
same,binding bioactive substance discovered for the target protein (listed as binder),"[1]; protein FLJ43911, SEQ ID NO:61",benzethonium
CC(C)(C)c1ccc(C(=O)CCCN2CCC(OC(c3ccccc3)c3ccccc3)CC2)cc1 [ebastine],SEC-MS spectral intensity of compound,"FLJ16517 (SEQ ID NO:54); Minerals (+), compound 1 uM, protein 0 uM",−0.1
same,SEC-MS spectral intensity of compound,"FLJ16517 (SEQ ID NO:54); Minerals (+), compound 1 uM, protein 23.8 uM",0.0
same,SEC-MS spectral intensity of compound,"FLJ16517 (SEQ ID NO:54); Minerals (+), compound 1 uM, protein 47.5 uM",0.0
same,SEC-MS spectral intensity of compound,"FLJ16517 (SEQ ID NO:54); Minerals (+), compound 10 uM, protein 0 uM",−0.1
same,SEC-MS spectral intensity of compound,"FLJ16517 (SEQ ID NO:54); Minerals (+), compound 10 uM, protein 23.8 uM",0.0
same,SEC-MS spectral intensity of compound,"FLJ16517 (SEQ ID NO:54); Minerals (+), compound 10 uM, protein 47.5 uM",0.1
same,SEC-MS spectral intensity of compound,"FLJ16517 (SEQ ID NO:54); Minerals (+), compound 100 uM, protein 0 uM",−0.1
same,SEC-MS spectral intensity of compound,"FLJ16517 (SEQ ID NO:54); Minerals (+), compound 100 uM, protein 23.8 uM",1.0
same,SEC-MS spectral intensity of compound,"FLJ16517 (SEQ ID NO:54); Minerals (+), compound 100 uM, protein 47.5 uM",0.7
same,SEC-MS spectral intensity of compound,"FLJ16517 (SEQ ID NO:54); Minerals (+), compound 250 uM, protein 0 uM",0.0
same,SEC-MS spectral intensity of compound,"FLJ16517 (SEQ ID NO:54); Minerals (+), compound 250 uM, protein 23.8 uM",18.4
same,SEC-MS spectral intensity of compound,"FLJ16517 (SEQ ID NO:54); Minerals (+), compound 250 uM, protein 47.5 uM",12.8
same,SEC-MS spectral intensity of compound,"FLJ16517 (SEQ ID NO:54); Minerals (−), compound 1 uM, protein 0 uM",0.0
same,SEC-MS spectral intensity of compound,"FLJ16517 (SEQ ID NO:54); Minerals (−), compound 1 uM, protein 23.8 uM",0.0
same,SEC-MS spectral intensity of compound,"FLJ16517 (SEQ ID NO:54); Minerals (−), compound 1 uM, protein 47.5 uM",0.0
same,SEC-MS spectral intensity of compound,"FLJ16517 (SEQ ID NO:54); Minerals (−), compound 10 uM, protein 0 uM",0.0
same,SEC-MS spectral intensity of compound,"FLJ16517 (SEQ ID NO:54); Minerals (−), compound 10 uM, protein 23.8 uM",0.0
same,SEC-MS spectral intensity of compound,"FLJ16517 (SEQ ID NO:54); Minerals (−), compound 10 uM, protein 47.5 uM",0.0
same,SEC-MS spectral intensity of compound,"FLJ16517 (SEQ ID NO:54); Minerals (−), compound 100 uM, protein 0 uM",0.0
same,SEC-MS spectral intensity of compound,"FLJ16517 (SEQ ID NO:54); Minerals (−), compound 100 uM, protein 23.8 uM",1.3
same,SEC-MS spectral intensity of compound,"FLJ16517 (SEQ ID NO:54); Minerals (−), compound 100 uM, protein 47.5 uM",1.0
same,SEC-MS spectral intensity of compound,"FLJ16517 (SEQ ID NO:54); Minerals (−), compound 250 uM, protein 0 uM",0.1
same,SEC-MS spectral intensity of compound,"FLJ16517 (SEQ ID NO:54); Minerals (−), compound 250 uM, protein 23.8 uM",9.2
same,SEC-MS spectral intensity of compound,"FLJ16517 (SEQ ID NO:54); Minerals (−), compound 250 uM, protein 47.5 uM",11.8
